Results as given in publication PMC10523135 (RSC Advances, 2023).

System: MCF-7 (human breast cancer cell line)
Assay: CCK-8 antiproliferative assay, MCF-7
Type: cell-based
Details: MCF7, 48 h, read-out: IC50 (μM) ± SD MCF-7

How did the IC50 turn out when O=C(CCCCCCC(=O)Nc1ccccc1)NO [SAHA] was run?
Its IC50 is 11.8 ± 0.14 µM.
